Measurements published in paper PMC10371073.
These are yes or no findings as the source states them, for the method shown. In cells and extracts the contact can be indirect. Some entries that bind do so weakly or less than the wild type.

The chains behind the UniProt entries cited, without tags or fusion partners.
UniProt P35637: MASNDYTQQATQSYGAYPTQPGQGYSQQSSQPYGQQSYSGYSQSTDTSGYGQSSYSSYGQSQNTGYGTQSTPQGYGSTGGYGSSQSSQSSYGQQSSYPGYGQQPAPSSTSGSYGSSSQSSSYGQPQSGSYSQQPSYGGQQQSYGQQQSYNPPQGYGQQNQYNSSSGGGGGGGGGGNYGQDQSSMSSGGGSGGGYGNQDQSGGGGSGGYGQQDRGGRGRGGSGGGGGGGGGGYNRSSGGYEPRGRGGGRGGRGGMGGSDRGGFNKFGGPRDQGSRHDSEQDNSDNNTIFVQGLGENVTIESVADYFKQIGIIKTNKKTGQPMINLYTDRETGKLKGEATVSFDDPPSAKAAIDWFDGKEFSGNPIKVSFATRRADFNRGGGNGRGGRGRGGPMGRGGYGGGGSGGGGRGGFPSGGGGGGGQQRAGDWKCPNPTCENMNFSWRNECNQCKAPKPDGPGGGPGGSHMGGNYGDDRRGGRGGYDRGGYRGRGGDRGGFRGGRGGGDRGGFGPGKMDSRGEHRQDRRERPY

Legend:
[1] = biological target: Fused in Sarcoma (FUS), endogenous wild type (human (endogenous in HEK293 and human fibroblasts)) (UniProt P35637); assay: co-IP; endogenous FUS precipitated with anti-FUS antibody and protein A/G PLUS agarose beads from HEK293 lysate (0.2% NP-40, 150 mM NaCl, 25 mM Tris-HCl, 0.1% SDS), immunoblot for Lig3; cells with or without glucose oxidase (GO)
[2] = biological target: Fused in Sarcoma (FUS), endogenous wild type (human (endogenous in HEK293 and human fibroblasts)) (UniProt P35637); assay: proximity ligation; in situ Duolink PLA on fixed, permeabilised cells (control and ALS patient-derived fibroblasts; iPSC-derived motor neurons), primary antibodies 1:100 overnight; with or without glucose oxidase (GO)

B1: DNA Ligase IIIα (Lig3), mitochondrial form mtLig3 (enzyme, UniProt P49916 43-1009)
chain: LLHGHPLFLRRKPVLSFQGSHLRSRATYLVFLPGLHVGLCSGPCEMAEQRFCVDYAKRGTAGCKKCKEKIVKGVCRIGKVVPNPFSESGGDMKEWYHIKCMFEKLERARATTKKIEDLTELEGWEELEDNEKEQITQHIADLSSKAAGTPKKKAVVQAKLTTTGQVTSPVKGASFVTSTNPRKFSGFSAKPNNSGEAPSSPTPKRSLSSSKCDPRHKDCLLREFRKLCAMVADNPSYNTKTQIIQDFLRKGSAGDGFHGDVYLTVKLLLPGVIKTVYNLNDKQIVKLFSRIFNCNPDDMARDLEQGDVSETIRVFFEQSKSFPPAAKSLLTIQEVDEFLLRLSKLTKEDEQQQALQDIASRCTANDLKCIIRLIKHDLKMNSGAKHVLDALDPNAYEAFKASRNLQDVVERVLHNAQEVEKEPGQRRALSVQASLMTPVQPMLAEACKSVEYAMKKCPNGMFSEIKYDGERVQVHKNGDHFSYFSRSLKPVLPHKVAHFKDYIPQAFPGGHSMILDSEVLLIDNKTGKPLPFGTLGVHKKAAFQDANVCLFVFDCIYFNDVSLMDRPLCERRKFLHDNMVEIPNRIMFSEMKRVTKALDLADMITRVIQEGLEGLVLKDVKGTYEPGKRHWLKVKKDYLNEGAMADTADLVVLGAFYGQGSKGGMMSIFLMGCYDPGSQKWCTVTKCAGGHDDATLARLQNELDMVKISKDPSKIPSWLKVNKIYYPDFIVPDPKKAAVWEITGAEFSKSEAHTADGISIRFPRCTRIRDDKDWKSATNLPQLKELYQLSKEKADFTVVAGDEGSSTTGGSSEENKGPSGSAVSRKAPSKPSASTKKAEGKLSNSNSKDGNMQTAKPSAMKVGEKLATKSSPVKVGEKRKAADETLCQTKVLLDIFTGVRLYLPPSTPDFSRLRRYFVAFDGDLVQEFDMTSATHVLGSRDKNPAAQQVSPEWIWACIRKRRLVAPC
binding [1]: binds | binding [2]: binds
